Results are given in words; binding and its absence hold for the method and conditions named. In cells and extracts the contact can be indirect. Some entries that bind do so weakly or less than the wild type. For part of these data: Sequences can lack the tags named with a protein.

The chains behind the UniProt entries cited, without tags or fusion partners.
UniProt P49841: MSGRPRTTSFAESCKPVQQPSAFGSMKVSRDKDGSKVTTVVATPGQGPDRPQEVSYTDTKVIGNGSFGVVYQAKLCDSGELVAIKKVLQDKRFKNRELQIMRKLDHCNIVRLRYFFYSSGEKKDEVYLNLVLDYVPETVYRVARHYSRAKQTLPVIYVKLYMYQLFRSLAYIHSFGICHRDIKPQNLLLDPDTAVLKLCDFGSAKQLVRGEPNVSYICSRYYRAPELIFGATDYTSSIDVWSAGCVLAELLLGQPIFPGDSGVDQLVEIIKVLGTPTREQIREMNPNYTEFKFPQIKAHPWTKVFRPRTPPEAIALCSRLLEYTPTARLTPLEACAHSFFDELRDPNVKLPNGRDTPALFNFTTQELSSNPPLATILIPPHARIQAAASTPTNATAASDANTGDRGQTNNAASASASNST
UniProt O95433: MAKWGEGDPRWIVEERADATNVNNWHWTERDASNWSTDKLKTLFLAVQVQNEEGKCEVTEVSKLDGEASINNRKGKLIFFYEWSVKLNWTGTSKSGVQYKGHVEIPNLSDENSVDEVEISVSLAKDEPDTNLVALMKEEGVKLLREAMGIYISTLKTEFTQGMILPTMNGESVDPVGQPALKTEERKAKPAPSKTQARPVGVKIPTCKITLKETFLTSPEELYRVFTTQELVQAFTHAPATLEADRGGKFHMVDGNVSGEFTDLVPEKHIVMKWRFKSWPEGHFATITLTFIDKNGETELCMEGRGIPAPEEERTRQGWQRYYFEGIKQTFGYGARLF

One test deals with T1, PGK1-Flag (UniProt P00558).
T1 sequence: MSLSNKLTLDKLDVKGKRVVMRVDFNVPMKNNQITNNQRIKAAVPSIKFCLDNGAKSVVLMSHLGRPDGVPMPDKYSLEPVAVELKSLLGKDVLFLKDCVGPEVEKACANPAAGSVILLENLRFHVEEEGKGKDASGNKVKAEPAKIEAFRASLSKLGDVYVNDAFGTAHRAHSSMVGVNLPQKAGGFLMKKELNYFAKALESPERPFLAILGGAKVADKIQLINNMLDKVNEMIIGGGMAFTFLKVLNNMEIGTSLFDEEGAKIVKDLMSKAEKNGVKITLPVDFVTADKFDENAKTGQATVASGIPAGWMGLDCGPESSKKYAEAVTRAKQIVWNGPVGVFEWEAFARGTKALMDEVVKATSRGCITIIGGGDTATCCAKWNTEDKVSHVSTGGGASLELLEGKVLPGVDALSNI
Briefly: co-IP; MCF-7ADR cells transfected with 2 μg PGK1-Flag plasmid for 48 h; PGK1-Flag immunoprecipitated with an anti-flag antibody; immunoblot. (A western blot detects proteins with antibodies after separation by electrophoresis.)

In test [1] the target is Glycogen synthase kinase-3β (human (endogenous in MCF-7ADR, 293T, breast cancer tissue)) (UniProt P49841). As to the kind of experiment: co-IP; endogenous GSK3β immunoprecipitated from MCF-7ADR cell lysate with an anti-GSK3β antibody (IgG control), protein A/G-agarose, 6 washes (50 mM Tris-HCl, 150 mM NaCl, 1% Triton, pH 7.5); immunoblot.

For “Glycogen synthase kinase-3β (from UniProt P49841 1-420)”, in the test with PGK1-Flag, the binding result was “binds”. As to HOP (from UniProt P31948 1-543), the binding entry with PGK1-Flag is listed as “no binding”. Turning to Aha1 (from UniProt O95433 1-338), the binding entry (with PGK1-Flag; in test [1]) was “binds” in each case.

B1: P23 (protein, UniProt Q15185 1-160)
chain: MQPASAKWYDRRDYVFIEFCVEDSKDVNVNFEKSKLTFSCLGGSDNFKHLNEIDLFHCIDPNDSKHKRTDRSILCCLRKGESGQSWPRLTKERAKLNWLSVDFNNWKDWEDDSDEDMSNFDRFSEMMNNMGGDEDVDLPEVDGADDDSQDSDDEKMPDLE
Turning to B1, the binding entry (with PGK1-Flag; in test [1]) was “binds” each time.

B2: PP5 (protein, UniProt P53041 1-499)
chain: MAMAEGERTECAEPPRDEPPADGALKRAEELKTQANDYFKAKDYENAIKFYSQAIELNPSNAIYYGNRSLAYLRTECYGYALGDATRAIELDKKYIKGYYRRAASNMALGKFRAALRDYETVVKVKPHDKDAKMKYQECNKIVKQKAFERAIAGDEHKRSVVDSLDIESMTIEDEYSGPKLEDGKVTISFMKELMQWYKDQKKLHRKCAYQILVQVKEVLSKLSTLVETTLKETEKITVCGDTHGQFYDLLNIFELNGLPSETNPYIFNGDFVDRGSFSVEVILTLFGFKLLYPDHFHLLRGNHETDNMNQIYGFEGEVKAKYTAQMYELFSEVFEWLPLAQCINGKVLIMHGGLFSEDGVTLDDIRKIERNRQPPDSGPMCDLLWSDPQPQNGRSISKRGVSCQFGPDVTKAFLEENNLDYIIRSHEVKAEGYEVAHGGRCVTVFSAPNYCDQMGNKASYIHLQGSDLRPQFHQFTAVPHPNVKPMAYANTLLQLGMM
Regarding B2, the binding result (in the test with PGK1-Flag; in test [1]) was “no binding” in each case.

B3: FKBP5 (protein, UniProt Q13451 1-457)
chain: MTTDEGAKNNEESPTATVAEQGEDITSKKDRGVLKIVKRVGNGEETPMIGDKVYVHYKGKLSNGKKFDSSHDRNEPFVFSLGKGQVIKAWDIGVATMKKGEICHLLCKPEYAYGSAGSLPKIPSNATLFFEIELLDFKGEDLFEDGGIIRRTKRKGEGYSNPNEGATVEIHLEGRCGGRMFDCRDVAFTVGEGEDHDIPIGIDKALEKMQREEQCILYLGPRYGFGEAGKPKFGIEPNAELIYEVTLKSFEKAKESWEMDTKEKLEQAAIVKEKGTVYFKGGKYMQAVIQYGKIVSWLEMEYGLSEKESKASESFLLAAFLNLAMCYLKLREYTKAVECCDKALGLDSANEKGLYRRGEAQLLMNEFESAKGDFEKVLEVNPQNKAARLQISMCQKKAKEHNERDRRIYANMFKKFAEQDAKEEANKAMGKKTSEGVTNEKGTDSQAMEEEKPEGHV
In the case of B3, the binding entry (in the test with PGK1-Flag; in test [1]) was “no binding” each time.

B4: CDC37 (protein, UniProt Q16543 1-378)
chain: MVDYSVWDHIEVSDDEDETHPNIDTASLFRWRHQARVERMEQFQKEKEELDRGCRECKRKVAECQRKLKELEVAEGGKAELERLQAEAQQLRKEERSWEQKLEEMRKKEKSMPWNVDTLSKDGFSKSMVNTKPEKTEEDSEEVREQKHKTFVEKYEKQIKHFGMLRRWDDSQKYLSDNVHLVCEETANYLVIWCIDLEVEEKCALMEQVAHQTIVMQFILELAKSLKVDPRACFRQFFTKIKTADRQYMEGFNDELEAFKERVRGRAKLRIEKAMKEYEEEERKKRLGPGGLDPVEVYESLPEELQKCFDVKDVQMLQDAISKMDPTDAKYHMQRCIDSGLWVPNSKASEAKEGEEAGPGDPLLEAVPKTGDEKDVSV
Consider B4, for which the binding result (in the test with PGK1-Flag; in test [1]) was “no binding” in each case.

The record behind these values is PMC9088184.
